Assay results taken from PMC8733628.
These are yes or no findings as the source states them, for the method shown. Where a sequence is shown, tags or fusion partners need not be part of it.

Molecular target: T1, Alb3-Cub: mature Alb3 fused to the C-terminal half of ubiquitin (split-ubiquitin bait) (Arabidopsis thaliana) (UniProt Q8LBP4)
T1 sequence: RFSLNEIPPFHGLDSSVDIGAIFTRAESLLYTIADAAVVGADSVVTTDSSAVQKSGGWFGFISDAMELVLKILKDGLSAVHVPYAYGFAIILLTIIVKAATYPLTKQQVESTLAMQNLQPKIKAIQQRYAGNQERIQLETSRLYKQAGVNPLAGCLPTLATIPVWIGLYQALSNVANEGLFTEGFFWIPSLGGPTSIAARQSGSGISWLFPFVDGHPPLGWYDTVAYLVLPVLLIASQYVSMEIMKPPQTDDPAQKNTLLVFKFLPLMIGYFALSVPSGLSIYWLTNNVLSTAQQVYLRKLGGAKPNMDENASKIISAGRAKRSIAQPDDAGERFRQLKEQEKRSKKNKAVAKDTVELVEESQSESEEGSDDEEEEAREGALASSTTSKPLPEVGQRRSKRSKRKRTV
Test: two-hybrid; yeast split-ubiquitin assay; Alb3 constructs fused to Cub, uL4 constructs fused to NubG; growth on selective medium (-LTH)

In the case of “NubG-uL4 of Thermosynechococcus elongatus, full length (aa 1-210)”, the binding is reported as “no binding”.
